Measured values reported in patent publication US9090701B2, “Methods of detecting oxidized calcium/calmodulin dependent protein kinase II” (University of Iowa Research Foundation, priority 2008, dated 2015).

Experiment: LC-MS-MS of tryptic methionine-containing peptides after H2O2 treatment of intact protein
Set-up: key to Relative Change (symbols): NQ: Observed in H2O2 treated sample, absent in control sample, so not quantified; NO: Not observed
Conditions: H2O2 treated vs non-treated intact protein; for Relative Change: average ± standard deviation, three replicates

Sequence | Relative Change | Relative Change (symbols)
STVASMMHR | 0.36 ± 0.06 | 
STVASMMHR + 1 Oxygen: singly oxidized form of the STVASMMHR peptide (one added oxygen (methionine oxidation)) | 6.4 ± 1.9 | 
STVASMMHR + 2 Oxygen: doubly oxidized form of the STVASMMHR peptide (two added oxygens (methionine oxidation)) | 115 ± 25 | 
STVASMMHR + 3 Oxygen: triply oxidized form of the STVASMMHR peptide (three added oxygens (methionine oxidation)) |  | NQ^b
STVASMMHR + 4 Oxygen: STVASMMHR peptide with four added oxygens (four added oxygens (methionine oxidation)) |  | NO^c
